For this experiment, the target named is T1, HA-tagged WT ZEB1, full length, in vitro synthesized (UniProt P37275).
T1 sequence: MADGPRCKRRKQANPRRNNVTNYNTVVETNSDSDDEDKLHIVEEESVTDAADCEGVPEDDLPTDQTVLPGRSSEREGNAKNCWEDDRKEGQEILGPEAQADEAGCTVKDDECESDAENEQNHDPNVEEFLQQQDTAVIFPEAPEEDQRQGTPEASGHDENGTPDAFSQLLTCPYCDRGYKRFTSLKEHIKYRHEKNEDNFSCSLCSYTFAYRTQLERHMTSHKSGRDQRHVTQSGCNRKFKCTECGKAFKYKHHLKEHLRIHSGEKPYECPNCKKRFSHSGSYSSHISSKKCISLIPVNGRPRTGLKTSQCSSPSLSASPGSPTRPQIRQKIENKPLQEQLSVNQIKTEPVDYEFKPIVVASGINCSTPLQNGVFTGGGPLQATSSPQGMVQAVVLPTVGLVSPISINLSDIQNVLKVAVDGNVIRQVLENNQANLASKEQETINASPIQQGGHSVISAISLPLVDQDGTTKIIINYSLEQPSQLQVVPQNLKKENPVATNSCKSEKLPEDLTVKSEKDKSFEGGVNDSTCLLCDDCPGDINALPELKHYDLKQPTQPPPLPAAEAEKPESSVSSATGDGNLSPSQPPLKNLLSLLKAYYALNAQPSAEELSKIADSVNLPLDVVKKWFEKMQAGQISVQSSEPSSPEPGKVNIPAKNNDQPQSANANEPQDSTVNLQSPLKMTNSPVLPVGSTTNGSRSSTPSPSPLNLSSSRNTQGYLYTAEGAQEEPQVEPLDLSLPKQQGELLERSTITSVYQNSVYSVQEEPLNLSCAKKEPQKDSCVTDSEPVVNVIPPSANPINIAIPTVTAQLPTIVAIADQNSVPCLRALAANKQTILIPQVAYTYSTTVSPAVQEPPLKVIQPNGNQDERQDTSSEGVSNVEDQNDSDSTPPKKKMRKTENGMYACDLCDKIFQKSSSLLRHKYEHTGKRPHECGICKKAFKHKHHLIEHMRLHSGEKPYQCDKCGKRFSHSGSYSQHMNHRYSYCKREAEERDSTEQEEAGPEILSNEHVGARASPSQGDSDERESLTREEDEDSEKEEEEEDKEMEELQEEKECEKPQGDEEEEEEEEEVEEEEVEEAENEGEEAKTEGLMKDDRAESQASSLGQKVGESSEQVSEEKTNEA
The experiment in a line: pull-down; in vitro translated proteins (wheat germ) incubated in pull-down buffer (250 mM sucrose, 10 mM MOPS/KOH pH 7.2, 80 mM KCl, 5 mM MgCl2, 5 mM KH2PO4) 1 h at 37 °C; HA-ZEB1 held on anti-HA affinity matrix, 1 h at 4 °C, five washes; western blot (anti-His).

Results are given in words; binding and its absence hold for the method and conditions named. In cells and extracts the contact can be indirect. Binding can be weak; no strength is given. Tags and fused reporters may be left off the sequences shown.

“His-tagged YAP fragment p2 (central WW-repeat containing domain) (domain or fragment)”: the binding entry is on record as “binds”.
